This is an account of results in PubChem BioAssay AID1347423 (Functional Genomics Laboratory (NCATS/FGL), 2020).

The whole screen tested about 52,000 sequences, of which about 210 (0.4%) were called active.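 The calls were made as follows: active = gene whose silencing raises cell survival under the drug, median off-target-corrected z-score across its silencing RNAs 2 or more; inactive = the rest.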 The list shows a part of the results.

This assay is described as follows: Resistance to Poly (ADP-Ribose) Polymerase inhibitor: Gene Identification via Genome-wide siRNA Screen. The settings on record: mouse BRCA2 R2336H ES cells, olaparib, CellTiter-Glo viability; hits give high values. A digest of the protocol: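 Genome-wide siRNA screen (3 siRNAs/gene, 20 nM) in mouse ES cells carrying hypomorphic BRCA2 R2336H; olaparib 500 nM added 48 h post-transfection, CellTiter-Glo viability 72 h later. Normalized to plate-median negative control; MAD z-scores, gene median, seed-adjusted.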
(Cellular ATP, detected with luciferase, serves as a proxy for viable cell number.)
Take GGAGUGCACUGGAAAACACTT against Rasef: the z-score was inactive: -0.451.
The value for GGUGUUUAAAUACAACCGATT against Ptgis was inactive: 2.23.
The value for “GCUUUCUGGGUAACAUAGGTT against 4933400K24Rik” was inactive: 1.54.
The same measure for “GGCCAAUGAAGACCCAGAATT against 4930467B06Rik”: inactive: 1.96; for GGACAGGAAGGUCAUCCCUTT against Sntb2: inactive: 2.67.
For the sequence GCAUCUUCCACAUUCGCUCTT against Olfr945, the z-score is inactive: 0.597.
On to GGAGUGGUCUGACAGAAGATT against AU040950, for which the z-score is inactive: 0.12.
As to GGAUCAGGUACACAGCAAGTT against Dci, the z-score was inactive: -0.154.
The value for CCCUCUGUUCGAGAAGAGGTT against Rpl7a was inactive: -2.82.
The same measure for GGUGUACCCAGUACUGCCATT against Cdk2: inactive: -0.498.
The value for “CGUGUUUGAUCACUACUCUTT against 1810019A08Rik” was inactive: -1.66; that for GGAGGAAGCCAUCAUCAUGTT against Grim19 was inactive: -1.04; that for CCUCGAGAGACUCAUACUGTT against Card12 was inactive: 0.979.
For the sequence GGUGAGAAGGAUUUGUAAATT against Clecsf8, the z-score is inactive: 0.0846.
The value for “CCGUAAUUUACCAAAGAGATT against 1110007A13Rik” was inactive: 0.906.
Take GGCAUUUUUCGGAUUGACATT against Mmp27: the z-score is inactive: 0.756.
The value for CCUGCCAGAGCCGGAAUUUTT against Nrp was inactive: 0.736; that for “GGACAUUGCUGCCUAUAUCTT against 6720463E02Rik” was inactive: 0.793.
The same measure for GGUGAUCCUAAGAAAGUCCTT against Ireb2: inactive: 0.396; for GCACUCCAAGAUAUUAUGUTT against BC045600: inactive: 0.909.
The same measure for GGUGGUUGGUGGGUAUUUATT against Slc30a3: inactive: 0.0476; for GGCUAAAAAGAGUAGACUATT against Irs1: inactive: 0.45.
Take CACCUAAACCCAUUCCAGUTT against Dpm3: the z-score was inactive: 0.523.
The value for GGAUGAACAUCAAAGAAGATT against Lace1 was inactive: 0.897.
The same measure for “CCUUCUACCUCACCUUACGTT against 4432406C05Rik”: inactive: -0.696.
The same measure for GGUAUAUCCAUUCCAAAGATT against Osr2: inactive: -0.719; for GGGACAACCUUACAUCGAUTT against Mpz: inactive: 1.62.
As to “GGAUGGAUCUAAAGACACUTT against 4930544M13Rik”, the z-score was inactive: -0.811.
The same measure for GCUGGCCUUUCUAAAAAAATT against Plekhm1: inactive: 0.148.
